Data as given in PubChem BioAssay AID504808 (Drosophila RNAi Screening Center, 2011)
Assay: 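Fly genes required to hold E2F transcription in check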 (primary screen). System: Drosophila S2 cells. Knock-down reagent: long dsRNA against Drosophila genes. Measurement: 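Firefly luciferase driven by E2F sites, normalised to Renilla luciferase on the same minimal promoter, measured by plate reader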. Reading the numbers: E2F firefly: higher = more E2F reporter activity; Renilla normaliser: higher = more normaliser reporter signal. Call rule: 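Called active if the normalised E2F reporter went up by over 50%; the cutoff is arbitrary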.
The deposit covers about 21,000 reagents; this is an unselected part of those with a known target gene and a result. Of all reagents, 18 (0.084%) were called active. 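Raw counts without plate normalisation, one of two replicates; the ratio scores behind the calls were not deposited.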 Reagents against one gene are numbered here. Names joined by + are all predicted targets of the reagent. Not stated in the record: the amount of reagent, the time to read-out.

| gene knocked down | reagent | E2F firefly, rep 1 | Renilla normaliser, rep 1 | outcome |
| --- | --- | --- | --- | --- |
| Ugt36A1 | 1 | 1.55e5 | 5534 | inactive |
| CG4712 | 1 | 89836 | 4398 | inactive |
| Etf-QO | 1 | 1.35e5 | 5119 | inactive |
| CG2211 | 1 | 1.01e5 | 3785 | inactive |
| CG31551 | 1 | 59220 | 3488 | inactive |
| thw | 1 | 1.35e5 | 6560 | inactive |
| mew | 1 | 73598 | 3224 | inactive |
| mew | 2 | 1.32e5 | 5928 | inactive |
| Acp95EF | 1 | 1.05e5 | 6614 | inactive |
| ND-B12 | 1 | 1.03e5 | 4062 | inactive |
| dysc | 1 | 1.09e5 | 5561 | inactive |
| dysc | 2 | 1.05e5 | 5553 | inactive |
| DNAlig3 | 1 | 1.48e5 | 6703 | inactive |
| fred | 1 | 1.50e5 | 4758 | inactive |
| fred | 2 | 1.43e5 | 4867 | inactive |
| fred | 3 | 1.46e5 | 4963 | inactive |
| fred | 4 | 1.54e5 | 4872 | inactive |
| Rpt3 | 1 | 67996 | 6539 | inactive |
| CG12320 | 1 | 1.47e5 | 7351 | inactive |
| regucalcin | 1 | 93138 | 2920 | inactive |
| regucalcin | 2 | 1.27e5 | 6303 | inactive |
| CG6277 | 1 | 1.16e5 | 6923 | inactive |
| CG33630 | 1 | 1.57e5 | 6772 | inactive |
| Lon | 1 | 73786 | 3624 | inactive |
| CG32188 | 1 | 1.40e5 | 3790 | inactive |
| CG16704 | 1 | 1.45e5 | 5275 | inactive |
| Ccdc85 | 1 | 1.26e5 | 4582 | inactive |
| CG9592 | 1 | 1.61e5 | 8147 | inactive |
| Chpf | 1 | 76060 | 5999 | inactive |
| Chpf | 2 | 8228 | 728 | inactive |
| PCB | 1 | 2822 | 229 | inactive |
| CG13474 | 1 | 1.76e5 | 7966 | inactive |
| CG4375 | 1 | 1.68e5 | 6054 | inactive |
| Cpr64Ad | 1 | 93863 | 4365 | inactive |
| CG18853 | 1 | 1.52e5 | 4595 | inactive |
| gem | 1 | 2663 | 243 | inactive |
| gem | 2 | 1.45e5 | 4782 | inactive |
| CG5567 | 1 | 75390 | 4063 | inactive |

Part of the list above, set out differently:
CG12320 — E2F firefly, rep 1: 1.47e5; Renilla normaliser, rep 1: 7351; outcome: inactive
regucalcin #1 — E2F firefly, rep 1: 93138; Renilla normaliser, rep 1: 2920; outcome: inactive
regucalcin #2 — E2F firefly, rep 1: 1.27e5; Renilla normaliser, rep 1: 6303; outcome: inactive
CG6277 — E2F firefly, rep 1: 1.16e5; Renilla normaliser, rep 1: 6923; outcome: inactive
CG33630 — E2F firefly, rep 1: 1.57e5; Renilla normaliser, rep 1: 6772; outcome: inactive
Lon — E2F firefly, rep 1: 73786; Renilla normaliser, rep 1: 3624; outcome: inactive
CG32188 — E2F firefly, rep 1: 1.40e5; Renilla normaliser, rep 1: 3790; outcome: inactive
CG16704 — E2F firefly, rep 1: 1.45e5; Renilla normaliser, rep 1: 5275; outcome: inactive
Ccdc85 — E2F firefly, rep 1: 1.26e5; Renilla normaliser, rep 1: 4582; outcome: inactive

Next reagents follow.
| gene knocked down | reagent | E2F firefly, rep 1 | Renilla normaliser, rep 1 | outcome |
| --- | --- | --- | --- | --- |
| CG42288 | 1 | 1.01e5 | 4185 | inactive |
| Optix | 1 | 1.49e5 | 5634 | inactive |
| Optix | 2 | 3076 | 200 | inactive |
| CG8915 | 1 | 1.53e5 | 5819 | inactive |
| CG4853 | 1 | 85341 | 4273 | inactive |
| CG33233 | 1 | 1.02e5 | 4359 | inactive |
| Hsc70-3 | 1 | 66813 | 5751 | inactive |
| CG41099 | 1 | 1.37e5 | 5783 | inactive |
| CG41099 | 2 | 1.34e5 | 5660 | inactive |
| CG31267 | 1 | 1.09e5 | 5390 | inactive |
| Uggt | 1 | 66039 | 3305 | inactive |
| CG15544 | 1 | 1.28e5 | 6651 | inactive |
| CG8245 | 1 | 1.15e5 | 4783 | inactive |
| CG13102 | 1 | 1.45e5 | 4927 | inactive |
| Gfrl | 1 | 62557 | 3711 | inactive |
| Gfrl | 2 | 1.47e5 | 7911 | inactive |
| Gfrl | 3 | 65979 | 3014 | inactive |
| Gfrl | 4 | 1.28e5 | 7474 | inactive |
| b6 | 1 | 1.32e5 | 6547 | inactive |
| CG5715 | 1 | 1.02e5 | 7096 | inactive |
| MFS14 | 1 | 68193 | 3478 | inactive |
| Gpat4 | 1 | 84178 | 4700 | inactive |
| Cpr78E | 1 | 1.41e5 | 6766 | inactive |
| CG18081 | 1 | 1.59e5 | 7925 | inactive |
| Cpr64Aa | 1 | 1.01e5 | 5039 | inactive |
| CG34434 | 1 | 1.63e5 | 6602 | inactive |
| CG8260 | 1 | 2.25e5 | 6674 | inactive |
| Gs2 | 1 | 1.26e5 | 5906 | inactive |
| Spg7 | 1 | 1.14e5 | 6069 | inactive |
| CG11815 | 1 | 1.06e5 | 4590 | inactive |
| CG14408 | 1 | 8455 | 848 | inactive |
| Ge-1 | 1 | 72227 | 3074 | inactive |
| sano | 1 | 77910 | 3557 | inactive |
| ValRS-m | 1 | 95234 | 3899 | inactive |
| Fkbp14 | 1 | 82395 | 3481 | inactive |
| CG15919 | 1 | 48883 | 3016 | inactive |
| CG43339 + CG43338 | 1 | 84889 | 3392 | inactive |
| Aps | 1 | 1.26e5 | 7145 | inactive |
| acs | 1 | 96584 | 4031 | inactive |
| Rrp5 | 1 | 77670 | 3064 | inactive |
| CG10588 | 1 | 1.28e5 | 7483 | inactive |
| CG18518 | 1 | 1.26e5 | 6427 | inactive |
| l(2)03659 | 1 | 1.35e5 | 5330 | inactive |
| l(2)03659 | 2 | 1.48e5 | 5171 | inactive |
| Cyp6d4 | 1 | 74231 | 3244 | inactive |
| CG31121 | 1 | 1.19e5 | 5248 | inactive |
| CG31121 | 2 | 1.07e5 | 5843 | inactive |
